According to PubChem BioAssay AID1671190 (National Center for Advancing Translational Sciences (NCATS), 2021):
“And” between values parts separate entries of the source, which are not always exact repeats. Equal values may be shown once. Among all 580,000 compounds or so, about 6,100 (1.1%) were called active. Inconclusive means that the source gave no clear call. Such entries were picked first, then a sample of the others. Calls follow the shape of the dose curve; as a rule, active = well fitted inhibition curve with a large enough effect; inconclusive = small, poorly fitted or top-dose-only effect, or another doubt; inactive = no such curve, though single readings can be large or run the other way. Potencies of inconclusive entries are doubtful fits and often do not repeat.

Amino acid sequences for entries named in this document (tags omitted). A change or cut given only in a name is not applied to a line headed by its entry.
UniProt P18054: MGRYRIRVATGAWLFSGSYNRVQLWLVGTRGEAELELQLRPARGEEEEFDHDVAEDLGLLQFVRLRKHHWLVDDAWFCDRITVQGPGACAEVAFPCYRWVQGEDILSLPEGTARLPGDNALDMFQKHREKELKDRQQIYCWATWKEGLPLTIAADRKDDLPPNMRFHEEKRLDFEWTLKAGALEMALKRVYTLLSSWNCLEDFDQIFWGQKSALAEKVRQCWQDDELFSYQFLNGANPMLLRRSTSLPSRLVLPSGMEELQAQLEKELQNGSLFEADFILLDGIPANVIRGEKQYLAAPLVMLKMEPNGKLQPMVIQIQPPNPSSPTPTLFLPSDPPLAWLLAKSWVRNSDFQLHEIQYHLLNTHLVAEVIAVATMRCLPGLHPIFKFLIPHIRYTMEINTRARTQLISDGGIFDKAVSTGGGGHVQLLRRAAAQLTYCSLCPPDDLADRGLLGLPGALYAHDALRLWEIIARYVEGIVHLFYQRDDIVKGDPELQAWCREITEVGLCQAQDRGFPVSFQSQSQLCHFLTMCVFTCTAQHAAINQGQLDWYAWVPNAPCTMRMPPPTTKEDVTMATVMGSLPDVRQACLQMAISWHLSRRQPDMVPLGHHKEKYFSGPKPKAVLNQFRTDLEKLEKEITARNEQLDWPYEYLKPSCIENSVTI

What follows are compounds tested against Polyunsaturated fatty acid lipoxygenase ALOX12 (Homo sapiens) (UniProt P18054) (assay: Primary qHTS assay for inhibitors of human arachidonate 12S-lipoxygenase (ALOX12): Round 2). Settings: purified 12hLO, xylenol orange hydroperoxide absorbance; activity change, negative = inhibition: at 108 µM (top of the series) unless noted.
How it was run: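 Purified human 12hLO at 150 nM in 25 mM Hepes, 0.01% Triton X-100, pH 7.0, preincubated 15 min at room temperature with compound. Reaction started with 40 uM arachidonic acid, 30 min at room temperature. Hydroperoxide measured by Fe-xylenol orange, 573/405 nm absorbance ratio.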
% is scaled to controls: 0 for no effect and ±100 for the full control effect; potency is read from the fitted curve at half-maximal effect.

Row | SMILES | activity change, negative = inhibition | Potency
1 | O=C(CSc1nnnn1Cc1ccccc1)N1CCN(S(=O)(=O)c2ccc3c(c2)CCC3)CC1 | inactive: -1.14% | –
2 | O=C(CSc1n[nH]c(-c2ccncc2)n1)Nc1ccc(Cl)c(Cl)c1 | – | inconclusive: 50.1 µM [inhibitor, partial curve, poor fit]
3 | Cc1nn(-c2ccc(=O)[nH]n2)c2c1C(c1ccc(-c3ccc(F)cc3)o1)CC(=O)N2 (stereo unspecified) | – | inconclusive: 39.8 µM [inhibitor, partial curve, poor fit]
4 | Cc1onc(-c2c(F)cccc2Cl)c1C(=O)N1CCCC1 | inactive: 4.42% | –
5 | O=C(c1ccccc1)N1CCn2ncc(C(=O)N3CCOCC3)c2C1 | inactive: 3.79% [at 6.33 µM] | –
6 | Cc1ccc2sc(N(CCCN(C)C)C(=O)CN3C(=O)c4ccccc4C3=O)nc2c1C | – | inconclusive: 44.7 µM [inhibitor, partial curve, poor fit]
7 | COc1ccc(CC(=O)N2CCc3c(nc4cc(-c5ccccc5Cl)[nH]n4c3=O)C2)cc1 | – | inconclusive: 10 µM [inhibitor, full curve]
8 | O=C(CSc1nc2cc(Cl)ccc2s1)N1CCN(C(=O)c2ccco2)CC1 | inactive: 383% | –
9 | CC(=O)Oc1cccc(N2C(=O)C3C(C2=O)C2C=CC3C23CC3)c1 (stereo unspecified) | inactive: -18.2% | –
10 | O=C1C(=O)c2cccnc2-c2ncccc21 | – | active: 3.98 µM
11 | CCN1CCN(c2ccc(S(=O)(=O)N3CCOCC3)cc2NC(=O)/C=C/c2ccc([N+](=O)[O-])cc2)CC1 | – | inconclusive: 89.1 µM [inhibitor, single point]
12 | Fc1ccc(OCc2nn[nH]n2)c(F)c1 | – | inconclusive: 158 µM [inhibitor, partial curve, poor fit]
13 | CC(C)(C)N/N=C/c1cc(Cl)cc([N+](=O)[O-])c1O | – | active: 15.8 µM
14 | O=C(O)Cc1sc(Nc2cccc3ccccc23)nc1-c1ccc(F)cc1 | – | inconclusive: 31.6 µM [inhibitor, partial curve]
15 | O=C(Nc1cccc(C(F)(F)F)c1)N[C@H]1[C@H](O)[C@@H](N2CCOCC2)[C@@H]2OC[C@H]1O2 | – | inconclusive: 31.6 µM [inhibitor, partial curve]
16 | CCOc1ccc(Cn2c(O)cc(=O)[nH]c2=O)cc1 | – | inconclusive: 44.7 µM [inhibitor, partial curve, poor fit]
17 | NC(=O)c1cccc(NC(=O)c2cccc3cccnc23)c1 | inactive: -20.1% | –
18 | Cc1c(Cl)cccc1NC(=O)CN1C(=O)NC(c2ccc(Cl)cc2)C2=C1COC2=O (stereo unspecified) | – | inconclusive: 44.7 µM [inhibitor, partial curve]
19 | COc1ccc(CN2C(=O)c3cccnc3C2Nc2ccc(OC)c(Cl)c2)cc1 (stereo unspecified) | – | inconclusive: 35.5 µM [inhibitor, partial curve, poor fit]
20 | CO[C@@H]1[C@@H](OC(N)=O)[C@@H](O)C(Oc2ccc3c(O)c(NC(=O)c4ccc(O)c(CC=C(C)C)c4)c(=O)oc3c2C)OC1(C)C (stereo partly specified) | – | inconclusive: 44.7 µM [inhibitor, partial curve, poor fit]
21 | Fc1ccc(/C=N/Nc2ccc3ccccc3c2)c(F)c1 | – | active: 2.51 µM
22 | Nc1[nH]c(C(=O)c2ccccc2)c(-c2ccc(Br)cc2)c1C(=O)c1ccc(Br)cc1 | – | inconclusive: 89.1 µM [inhibitor, partial curve, poor fit]

Row | SMILES | activity change, negative = inhibition | Potency
23 | CCOC(=O)c1ccc(S(=O)(=O)N2CCC(C(=O)OCC)CC2)cc1 | inactive: -1.78% | –
24 | COc1ccc(N2CCN(C(=O)COc3cccc(-c4nnc5n4CCCC5)c3)CC2)cc1 | – | inconclusive: 79.4 µM [inhibitor, partial curve, poor fit]
25 | COc1ccccc1OCC(=O)O/N=C(\N)c1ccccn1 | – | inconclusive: 35.5 µM [inhibitor, single point]
26 | CCN(CC)CCn1nc2c3c(cccc3c1=O)-c1ccccc1-2 | inactive: -7.79% | –
27 | COc1ccc(CNCCC(c2ccc(OC)cc2)c2ccccc2OC)cc1 (stereo unspecified) | inactive: 0% | –
28 | Cc1noc(C)c1S(=O)(=O)N1CCC(N(CCC(C)C)C2CCOCC2)CC1 | inactive: 12.6% | –
29 | OC[C@H]1O[C@@H](n2cnc3c(=S)nc[nH]c32)[C@H](O)[C@@H]1O | – | inconclusive: 0.102 µM [inhibitor, full curve, poor fit]
30 | O=C(NCc1ccccn1)c1ccc(Cn2cc(C(F)(F)F)ccc2=O)cc1 | – | inconclusive: 112 µM [inhibitor, single point]
31 | N#Cc1ccc(OCc2cccc(S(=O)(=O)N3CCOCC3)c2)cc1 | inactive: -16.1% | –
32 | CN(C)c1ccc(C(=O)c2ccc(O)cc2O)cc1 | – | inconclusive: 70.8 µM [inhibitor, partial curve, poor fit]
33 | N#CC1=C2SCN(c3ccccc3)CN2C(=O)CC1c1cccs1 (stereo unspecified) | – | inconclusive: 20 µM [inhibitor, full curve, poor fit]
34 | CN(C)S(=O)(=O)c1ccc(/C(O)=C2/C(=O)C(=O)N(CCN3CCCCC3)C2c2cccnc2)cc1 (stereo unspecified) | – | inconclusive: 35.5 µM [inhibitor, single point]
35 | CN1C(=O)CCC2(CNC(=O)Nc3ccc4c(c3)OCCO4)CCCC=C12 (stereo unspecified) | inactive: 0.443% | –
36 | Cc1noc2ncnc(SCc3ccc(C(F)(F)F)cc3)c12 | inactive: 87.6% | –
37 | COc1cccc(C2CC(=O)Nc3c2c(=O)n(C)c2ncnn32)c1OC (stereo unspecified) | – | inconclusive: 44.7 µM [inhibitor, full curve, poor fit]
38 | CCOc1c(Br)cc(/C=C2\N=C(C)OC2=O)cc1Br | – | inconclusive: 112 µM [inhibitor, single point]
39 | CC[N+]1(C)CC2CCC(C)(C1)C2(C)C (stereo unspecified) | – | inconclusive: 50.1 µM [inhibitor, partial curve, poor fit] and inconclusive: 17.8 µM [inhibitor, partial curve, poor fit]
40 | C/C(O)=C(\N=Nc1cc(C)ccc1O)C(N)=O | – | inconclusive: 79.4 µM [inhibitor, partial curve, poor fit]
41 | O=C(NCc1ccccc1CN1CCCCC1)c1ccc(Cl)cc1N1CCCC1=O | – | inconclusive: 10 µM [inhibitor, partial curve, poor fit]
42 | CCCS(=O)(=O)c1c(S(=O)(=O)CCC)c2c(N)cccn2c1C(=O)c1ccccc1 | – | inconclusive: 12.6 µM [inhibitor, partial curve, poor fit]
43 | CC(C)c1ccc(CNc2ncccn2)cc1 | – | inconclusive: 0.631 µM [inhibitor, full curve, poor fit]
44 | CSc1nc2sc3c(c2c(=O)n1C)CCC3 | – | inconclusive: 22.4 µM [inhibitor, full curve, poor fit]

Row | SMILES | activity change, negative = inhibition | Potency
45 | CCNC(=O)N[C@H]1[C@H](O)[C@@H](N(C)CCN(C)C)[C@@H]2OC[C@H]1O2 | – | inconclusive: 0.891 µM [inhibitor, full curve, poor fit]
46 | CC(C)COc1ccccc1N | inactive: 41.9% | –
47 | S=C(Nc1ccccc1)Nc1nc2ccccc2n1CCOc1ccc(Cl)cc1 | – | active: 8.91 µM
48 | COc1cccc(NC(=O)Nc2ccc3nsnc3c2)c1 | – | inconclusive: 39.8 µM [inhibitor, partial curve, poor fit]
49 | COCCNc1nc(NCc2ccc(C(C)C)cc2)c2sccc2n1 | – | inconclusive: 100 µM [inhibitor, partial curve, poor fit]
50 | CCN(/N=C/C=C/c1ccccc1)c1cc(=O)n(C)c(=O)[nH]1 | inactive: -12.6% | –
51 | CNC(=S)Nc1cccc(C(C)=O)c1 | – | inconclusive: 112 µM [inhibitor, single point]
52 | CCOC(=O)c1c(C)[nH]c(C)c1S(=O)(=O)N(C)CC(=O)Nc1ccc(C(C)C)cc1 | inactive: -11.3% | –
53 | COC1CC(C)C(OC)c2cc(O)cc(c2O)NC(=O)C(C)=CC=CC(C)C(OC(N)=O)C(C)=CC(C)C1OC (stereo unspecified) | inactive: -25.6% | –
54 | CCCn1nc2cc(C(=O)NCc3ccccc3)ccc2c1OCC | – | inconclusive: 35.5 µM [inhibitor, partial curve, poor fit]
55 | C=CCn1c(NCc2c[nH]c3ccccc23)nc2ccccc21 | – | inconclusive: 50.1 µM [inhibitor, single point]
56 | CCCCN(C(=O)c1cc(Cl)nc2ccccc12)c1c(N)n(CC(C)C)c(=O)[nH]c1=O | inactive: -6.96% | –
57 | Cc1ccc(S(=O)(=O)NCC2CCC(C(=O)N(C)Cc3ccccc3)CC2)cc1 (stereo unspecified) | – | inconclusive: 56.2 µM [inhibitor, partial curve, poor fit]
58 | O=C(Nc1cccc(O)c1)c1cc(-c2cccs2)on1 | inconclusive: -33.7% [inhibitor] | –
59 | CC1CCC(C(C)C)C(OC(=O)C[n+]2cc(-c3ccc(Cl)cc3)n3c2CCC3)C1 (stereo unspecified) | – | inconclusive: 44.7 µM [inhibitor, partial curve]
60 | CCCCN(CCCC)c1nc(-c2ccccc2)cc(-c2ccccc2)c1C#N | – | inconclusive: 0.562 µM [inhibitor, full curve]
61 | COc1ccccc1CNC(=O)C(C)n1nc(C)n2c(cc3occc32)c1=O (stereo unspecified) | inactive: -0.627% | –
62 | COc1ccc(C2C=C(c3ccc(Br)cc3)Nc3ncnn32)cc1 (stereo unspecified) | – | inconclusive: 25.1 µM [inhibitor, partial curve, poor fit]
63 | CCOc1ccc(CCNC(=O)c2c(C)oc3ncnc(N4CCOCC4)c23)cc1 | – | inconclusive: 44.7 µM [inhibitor, partial curve, poor fit]
64 | COC(=O)CC1C(=O)NCCN1C(=S)NC(=O)c1ccccc1[N+](=O)[O-] (stereo unspecified) | – | inconclusive: 44.7 µM [inhibitor, partial curve, poor fit]
65 | O=C(CSc1ccccc1F)NCC1(N2CCCCC2)CCCCC1 | – | inconclusive: 89.1 µM [inhibitor, single point]
66 | CSc1ccc(C(=O)Nc2cc(C)ccc2F)cc1 | inactive: 2.07% | –

Copied from the list:
`COc1ccc(C2C=C(c3ccc(Br)cc3)Nc3ncnn32)cc1` (stereo unspecified) | Potency: inconclusive: 25.1 µM [inhibitor, partial curve, poor fit]
`S=C(Nc1ccccc1)Nc1nc2ccccc2n1CCOc1ccc(Cl)cc1` | Potency: active: 8.91 µM
`COC(=O)CC1C(=O)NCCN1C(=S)NC(=O)c1ccccc1[N+](=O)[O-]` (stereo unspecified) | Potency: inconclusive: 44.7 µM [inhibitor, partial curve, poor fit]
`CC(C)COc1ccccc1N` | activity change, negative = inhibition: inactive: 41.9%
